# Measured values as given in patent US11940442B2, “Method and system for determining integrated metabolic baseline and potential of living cells” (AGILENT TECHNOLOGIES, INC., priority 2015, dated 2024).
# For at least one compound, name, drawing or mass did not settle the structure.
# System: Jurkat cells
# Assay: Metabolic potential (OCR/ECAR, XFp) after co-injection of FCCP and oligomycin, rapamycin treatment
# Assay type: cell-based
# Settings: 10 nM rapamycin, 24 hours
# [1] = stress 0.5 μM FCCP + 1.0 μM oligomycin
smiles,measurement,setting,value
CO[C@H]1C[C@@H]2CC[C@@H](C)[C@@](O)(O2)C(=O)C(=O)N2CCCC[C@H]2C(=O)O[C@H]([C@H](C)C[C@@H]2CC[C@@H](O)[C@H](OC)C2)CC(=O)[C@H](C)/C=C(\C)[C@@H](O)[C@@H](OC)C(=O)[C@H](C)C[C@H](C)/C=C/C=C/C=C/1C [rapamycin],basal ECAR level,before stress,decreased
same,basal OCR level,before stress,decreased
same,aerobic metabolic potential relative to controls,[1],decreased
same,glycolytic potential relative to controls,[1],slightly increased
same,stressed ECAR level,[1],decreased
same,stressed OCR level,[1],decreased
